# Source: PMC11494653 (The Journal of Organic Chemistry, 2024)
# Test: general procedure: Fmoc solid-phase peptide synthesis; 2-chlorotrityl chloride resin (1.07 mmol/g); HCTU, 2,4,6-collidine
# Details: whole synthesis, scale of the general procedure 300 mg resin, 0.32 mmol total, trifluoroacetate (TFA) salt
substance,measurement,value
"Ile4,Gln5,Lys10-teixobactin",outcome,"we were unable to synthesize the swapmer Ile4,Gln5,Lys10-teixobactin"
